Reference: patent US12435087B2, “Modulators of DCN-1 and methods of use thereof” (Cellarity, Inc., priority 2023, dated 2025)
Read-outs that look alike come from different tables or passages of the source. The match of structure and compound is tentative.

By UniProt entry, the sequences of proteins in these tests, tags left out. Residues count along the entry.
UniProt Q96GG9, 60-248 limits assumed: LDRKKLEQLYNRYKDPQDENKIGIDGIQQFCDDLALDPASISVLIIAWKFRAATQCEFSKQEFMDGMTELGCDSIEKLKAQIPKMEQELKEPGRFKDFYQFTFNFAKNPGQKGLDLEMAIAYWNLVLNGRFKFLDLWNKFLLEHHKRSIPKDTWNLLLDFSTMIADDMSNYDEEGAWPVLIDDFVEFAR
UniProt Q96GG9, whole entry: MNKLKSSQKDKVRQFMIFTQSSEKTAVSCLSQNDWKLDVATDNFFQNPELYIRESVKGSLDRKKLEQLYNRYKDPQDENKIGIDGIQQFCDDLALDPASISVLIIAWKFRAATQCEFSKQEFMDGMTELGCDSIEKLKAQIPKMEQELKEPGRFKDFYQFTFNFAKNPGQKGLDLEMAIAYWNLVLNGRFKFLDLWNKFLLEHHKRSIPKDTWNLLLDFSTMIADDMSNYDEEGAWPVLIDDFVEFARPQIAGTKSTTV

What was measured:
[1] = target: DCN1 (DCUND1) protein PONY domain (Homo sapiens (Human), UniProt Q96GG9); test: TR-FRET assay (binding to DCN-1, displacement of FAM-labeled probe)
[2] = target: DCN1 protein (Homo sapiens (Human), UniProt Q96GG9); test: Intact protein MS analysis with the RapidFire-TOF system (covalent adduct formation); conditions: 400 nM DCN1, incubated at room temperature for 3 hours
[3] = read-out: TR FRET IC50 1 hr, 1 hr after treatment with compound
[4] = read-out: TR FRET IC50 24 hr, 24 hr after treatment with compound

Q: Which IC50 [1, 3] does the source give for `C=C(C(=O)NCc1cccc([C@@H]2c3cnn(-c4ccccc4)c3N(CC)C(=O)[C@H]2NC(=O)c2ccn(C(F)(F)F)n2)c1)C(C)N(C)C1COC1` (some centres unmarked) here?
A: < 0.2 µM

Q: What about the IC50 [1, 4] of the same molecule?
A: < 0.2 µM

Q: How did the IC50 ([1]; read-out: TR FRET IC50 1 hr, 1 hr after treatment with compound, tested form: formate) turn out when `C=C(Cn1ccnc1)C(=O)NCc1cccc([C@@H]2c3cnn(-c4ccccc4)c3N(CC)C(=O)[C@H]2NC(=O)c2nccc(C(F)(F)F)n2)c1` was run?
A: 0.2 to 1 µM

Q: And the IC50 ([1]; read-out: TR FRET IC50 24 hr, 24 hr after treatment with compound, tested form: formate)?
A: < 0.2 µM

Q: Which results are given for `C=C(CN1CCC(F)(F)C1)C(=O)NCc1cccc([C@@H]2c3cnn(-c4ccccc4)c3N(CC)C(=O)[C@H]2NC(=O)c2nccc(C(F)(F)F)n2)c1`?
A: IC50 [1, 3]: 0.2 to 1 µM; IC50 [1, 4]: < 0.2 µM; % Adduct Formation (MS Emax) [2]: +++ (MS Emax % adduct formation greater than 80.0 and less than or equal to 100.0)

Q: For `CCN1C(=O)[C@H](NC(=O)c2cccc(C(F)(F)F)c2)[C@@H](c2cccc(NC(=O)/C=C/C(F)(F)F)c2)c2c(C)nn(-c3ccccc3)c21` (relative stereo), which IC50 [1, 3] is on record?
A: > 3 µM

Q: What about the IC50 [1, 4] of the same molecule?
A: 0.2 to 1 µM

Q: What about the “% Adduct Formation (MS Emax)” value [2] of the same molecule?
A: +++ (MS Emax % adduct formation greater than 80.0 and less than or equal to 100.0)

Q: Which results are given for `CCN1C(=O)[C@H](NC(=O)c2cccc(C(F)(F)F)c2)[C@@H](c2cccc(NC(=O)C3=CCCC3)c2)c2c(C)nn(-c3ccccc3)c21` (relative stereo)?
A: IC50 [1, 3]: > 3 µM; IC50 [1, 4]: > 3 µM; % Adduct Formation (MS Emax) [2]: + (MS Emax % adduct formation greater than or equal to 0.0 and less than or equal to 30.0)

Q: Which results are given for `C=C(CN(C)C1COC1)C(=O)N(C)Cc1cccc([C@@H]2c3cnn(-c4ccccc4)c3N(CC)C(=O)[C@H]2NC(=O)c2ccn(C(F)(F)F)n2)c1`?
A: IC50 [1, 3]: 1 to 3 µM; IC50 [1, 4]: 0.2 to 1 µM

Q: For `C=C(C(=O)N(C)Cc1cccc([C@@H]2c3cnn(-c4ccccc4)c3N(CC)C(=O)[C@H]2NC(=O)c2nccc(C(F)(F)F)n2)c1)C(C)N(C)C1COC1` (some centres unmarked), which IC50 [1, 3] is on record?
A: 1 to 3 µM

Q: What about the IC50 [1, 4] of the same molecule?
A: 0.2 to 1 µM

Q: How did the IC50 [1, 3] turn out when `C=C(CN1CCOCC1)C(=O)N(C)c1cccc([C@H]2c3cnn(-c4ccccc4)c3N(CC)C(=O)[C@@H]2NC(=O)c2cccc(C(F)(F)F)c2)c1` (relative stereo) was run?
A: 1 to 3 µM

Q: And the IC50 [1, 4]?
A: 1 to 3 µM

Q: For `C=C(C(=O)NCc1cccc([C@@H]2c3cnn(-c4ccccc4)c3N(CC)C(=O)[C@H]2NC(=O)c2nccc(C(F)(F)F)n2)c1)C(C)N1CCC1` (some centres unmarked), which IC50 [1, 3] is on record?
A: < 0.2 µM

Q: And the IC50 [1, 4]?
A: < 0.2 µM

Q: `C=C(CN1CCOCC1)C(=O)N(C)Cc1cccc([C@@H]2c3cnn(-c4ccccc4)c3N(CC)C(=O)[C@H]2NC(=O)c2cccc(C(F)(F)F)c2)c1` was tested. Which IC50 [1, 3] did it give?
A: 0.2 to 1 µM

Q: And the IC50 [1, 4]?
A: < 0.2 µM
